23 compounds from PubChem BioAssay AID180 (DTP/NCI, 2004) can be followed below.

The list is a part of this screen's results and no random one: it gathers tests that were run many times, whatever their T/C, doses with no T/C, and many T/C values between a quarter and a half above the control. Further doses and runs are listed elsewhere. T/C gives the treated animals as a percentage of the vehicle group. Schedules are NCI's codes, taken here to give the interval after Q, in days (D) or hours (H), and the number of doses after X. Some T/C values carry the count of animals alive at the toxicity check (mostly the fifth day); where none is given, no animal had died by that day. Some doses were run more than once; the values are given in rising order. Some doses have a count of surviving animals in place of a T/C: the source holds a T/C of zero for them, seemingly a mark for toxic or unscored doses. Counts of survivors are from the toxicity check (mostly the fifth day) where no day follows; animals may have died later. Some schedules carry Z or #; the key to these is not given.

This experiment deals with BDF1 mice, Adenocarcinoma 755 s.c., tumor weight T/C. Description: NCI In Vivo Anticancer Drug Screen. Data for tumor model Adenocarcinoma 755 (subcutaneous) in B6D2F1 (BDF1) mice. Particulars: T/C endpoint: mean tumor weight, higher T/C = larger tumour; for T/C: evaluated on day 12. Summed up: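 Compound activity was tested in mice carrying transplanted tumors. Survival or tumor size was measured, and each value is the treated-group measurement divided by that of the vehicle-treated control group (T/C).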

The mark [1] stands for this setting: dose: 12.0 mg/kg/injection, schedule: Q01DX011 (ip), vehicle: methylcellulose (MC).
Where [2] appears, read: dose: 18.0 mg/kg/injection, schedule: Q01DX011 (ip), vehicle: methylcellulose (MC).
[3] abbreviates: dose: 75.0 mg/kg/injection, schedule: Q01DX011 (ip), vehicle: carboxymethylcellulose (CMC).
The mark [4] stands for this setting: dose: 62.0 mg/kg/injection, schedule: Q01DX011 (ip), vehicle: methylcellulose (MC).
Setting [5] is: dose: 31.0 mg/kg/injection, schedule: Q01DX011 (ip), vehicle: methylcellulose (MC).

For `CC(=O)[C@H]1CC[C@H]2[C@@H]3CCC4=CC(=O)[C@H](C)C[C@]4(C)[C@@]3(F)C(=O)C[C@]12C`, for the setting “dose: 3.0 mg/kg/injection, schedule: Q01DX011 (sc), vehicle: steroid suspending solution”, the T/C is 132 % of control. Further, the survivor count runs as follows: (dose: 150.0 mg/kg/injection, schedule: Q01DX011 (sc), vehicle: steroid suspending solution) 7 of 12; (dose: 300.0 mg/kg/injection, schedule: Q01DX011 (sc), vehicle: steroid suspending solution) 2 of 12; (dose: 400.0 mg/kg/injection, schedule: Q01DX011 (sc), vehicle: steroid suspending solution) 5 of 10.
Regarding `c1ccc(N2CCSCC2)cc1`, the T/C was 49, 60 [7 of 10 alive], 72 % of control under setting [1] and 47, 49 [7 of 10 alive], 64 % of control [9 of 10 alive] under setting [2]. Besides, the survivor count reads like this: under setting [1], 5 of 10; under setting [2], 3 of 10; (dose: 27.0 mg/kg/injection, schedule: Q01DX011 (ip), vehicle: methylcellulose (MC)) 4 of 10.
For the compound `CC1=CCN2CCC(O)C12` (stereo not given), under setting [3], the T/C is 129 % of control.
For the compound `CCCCCCCCCCCCCCCC[n+]1ccccc1`, the survivor count (dose: 1.0 mg/kg/injection, schedule: Q01DX011 (ip), vehicle: water) is reported as 4 of 10.
Consider `O=C(O)C1CCCN1c1ncnc2nc[nH]c12` (stereo not given), for which the T/C (dose: 225.0 mg/kg/injection, schedule: Q01DX011 (ip), vehicle: saline) was 142 % of control.
As to `CCC(=O)NC`, the T/C (dose: 90.0 mg/kg/injection, schedule: Q01DX011 (ip), vehicle: saline) is 133 % of control.
Consider `O=C=NC(c1ccccc1)(c1ccccc1)c1ccccc1`, for which the survivor count (dose: 224.0 mg/kg/injection, schedule: Q01DX011 (ip), vehicle: carboxymethylcellulose (CMC)) is recorded as 2 of 10.
`Nc1ncnc2c1cnn2Cc1ccc(Cl)cc1`: the T/C (dose: 9.5 mg/kg/injection, schedule: Q01DX011 (ip), vehicle: carboxymethylcellulose (CMC)) was 143 % of control. Besides, the survivor count under setting [3] is reported as 2 of 10.
In the case of `CCCc1c(Cl)nc(Cl)nc1Cl`, the T/C under setting [3] was 132 % of control.
For `O=C1C=C(N2CC2)C(=O)C(N2CC2)=C1N1CC1`, where the note is “dose: 0.2 mg/kg/injection, schedule: Q01DX011 (ip), vehicle: saline”, the survivor count is 0 of 10 and 1 of 10.
As to `NC(=O)c1ccccc1Nc1ccc([N+](=O)[O-])cc1[N+](=O)[O-]`, the T/C (dose: 49.0 mg/kg/injection, schedule: Q01DX011 (ip), vehicle: carboxymethylcellulose (CMC)) was 131 % of control and the T/C (dose: 70.0 mg/kg/injection, schedule: Q01DX011 (ip), vehicle: carboxymethylcellulose (CMC)) was 139 % of control [9 of 10 alive].
As for `Nc1nc(=S)cc(Nc2ccc(Cl)c(Cl)c2)[nH]1`, the survivor count is 6 of 10 under setting [4] and 5 of 10 (dose: 125.0 mg/kg/injection, schedule: Q01DX011 (ip), vehicle: methylcellulose (MC)).
As to `C[C@]12C=CC(=O)C=C1CC[C@@H]1[C@@H]2[C@@H](O)C[C@@]2(C)[C@H]1CC[C@]2(O)C(=O)COC(=O)CCC1CCCC1`, the survivor count by setting is: (dose: 3.1 mg/kg/injection, schedule: Q01DX011 (sc), vehicle: water) 6 of 10; (dose: 50.0 mg/kg/injection, schedule: Q01DX011 (sc), vehicle: water) 5 of 10.
Take `CCC(=O)c1cc2c(cc1CC)C(C)(C)CCC2(C)C`: the survivor count reads like this: (dose: 200.0 mg/kg/injection, schedule: Q01DX011 (ip), vehicle: carboxymethylcellulose (CMC)) 5 of 10; (dose: 400.0 mg/kg/injection, schedule: Q01DX011 (ip), vehicle: carboxymethylcellulose (CMC)) 0 of 10 and 5 of 10.
Consider `CC1CCOS(=O)O1` (stereo not given), for which the survivor count (dose: 80.0 mg/kg/injection, schedule: Q01DX011 (ip), vehicle: carboxymethylcellulose (CMC)) was 3 of 10.
As for `CC(CNC(=O)CCOS(C)(=O)=O)NC(=O)CCOS(C)(=O)=O` (stereo not given), the T/C (dose: 14.0 mg/kg/injection, schedule: Q01DX011 (ip), vehicle: carboxymethylcellulose (CMC)) is 130 % of control.
On to `CC(=O)OCC(=O)[C@@]1(O)CC[C@H]2[C@@H]3C[C@H](C)C4=CC(=O)CC[C@]4(C)[C@H]3[C@@H](O)C[C@@]21C`, for which the survivor count is, setting by setting: (dose: 11.0 mg/kg/injection, schedule: Q01DX011 (sc), vehicle: steroid suspending solution) 6 of 10; (dose: 22.0 mg/kg/injection, schedule: Q01DX011 (sc), vehicle: steroid suspending solution) 6 of 10; (dose: 22.0 mg/kg/injection, schedule: Q01DX011 (sc), vehicle: water) 6 of 10; (dose: 44.0 mg/kg/injection, schedule: Q01DX011 (sc), vehicle: steroid suspending solution) 6 of 10; (dose: 88.0 mg/kg/injection, schedule: Q01DX011 (sc), vehicle: steroid suspending solution) 2 of 10.
On to `C[C@]12C[C@H](O)[C@H]3[C@@H](CCC4=CC(=O)CC[C@@]43C)[C@@H]1CC[C@@H]2C(=O)CO`, for which the survivor count is on record as 4 of 10 (dose: 160.0 mg/kg/injection, schedule: Q01DX011 (oral), vehicle: steroid suspending solution); 3 of 10 (dose: 200.0 mg/kg/injection, schedule: Q01DX011 (oral), vehicle: steroid suspending solution); 1 of 10 (dose: 200.0 mg/kg/injection, schedule: Q#A X022 (sc), vehicle: steroid suspending solution); 6 of 10 (dose: 320.0 mg/kg/injection, schedule: Q01DX011 (iv), vehicle: steroid suspending solution); 1 of 10 (dose: 400.0 mg/kg/injection, schedule: Q#A X022 (sc), vehicle: steroid suspending solution); 5 of 10 (dose: 460.0 mg/kg/injection, schedule: Q01DX011 (im), vehicle: steroid suspending solution). Also, the survivor count reads like this: (dose: 460.0 mg/kg/injection, schedule: Q01DX011 (ip), vehicle: steroid suspending solution) 0 of 10; (dose: 460.0 mg/kg/injection, schedule: Q01DX011 (sc), vehicle: steroid suspending solution) 5 of 10; (dose: 640.0 mg/kg/injection, schedule: Q01DX011 (im), vehicle: steroid suspending solution) 5 of 10; (dose: 640.0 mg/kg/injection, schedule: Q01DX011 (ip), vehicle: steroid suspending solution) 0 of 10; (dose: 640.0 mg/kg/injection, schedule: Q01DX011 (sc), vehicle: steroid suspending solution) 5 of 10; (dose: 800.0 mg/kg/injection, schedule: Q01DX011 (oral), vehicle: steroid suspending solution) 3 of 10. In addition, the survivor count (dose: 960.0 mg/kg/injection, schedule: Q01DX011 (oral), vehicle: steroid suspending solution) was 4 of 10.
With `OCCn1cnc2c(SCc3ccccc3)ncnc21`, where the note is “dose: 225.0 mg/kg/injection, schedule: Q01DX011 (ip), vehicle: methylcellulose (MC)”, the survivor count is on record as 6 of 10.
As for `Cc1cnc(SCc2ccccc2Cl)nc1N(C)C`, the survivor count under setting [5] is on record as 6 of 10; the survivor count under setting [4] was 6 of 10; the survivor count (dose: 250.0 mg/kg/injection, schedule: Q01DX011 (ip), vehicle: methylcellulose (MC)) was 4 of 10.
Turning to `CC(C)n1cc2c(N)ncnc2n1`, the survivor count (dose: 50.0 mg/kg/injection, schedule: Q01DX011 (ip), vehicle: saline) is given as 4 of 10.
With `Nc1nc(=S)cc(Nc2cccc(Cl)c2)[nH]1`, the survivor count under setting [5] is on record as 6 of 10.
Turning to `Cc1cccc(N=Nc2c(S(=O)(=O)O)cc3cc(NC(=O)Nc4ccc5c(O)c(N=Nc6ccc7cc(S(=O)(=O)O)ccc7c6)c(S(=O)(=O)O)cc5c4)ccc3c2O)c1`, the survivor count was 6 of 10 (dose: 65.0 mg/kg/injection, schedule: Q01DX011 (ip), vehicle: carboxymethylcellulose (CMC)); 2 of 10 (dose: 100.0 mg/kg/injection, schedule: Q01DX011 (ip), vehicle: carboxymethylcellulose (CMC)); 1 of 10 (dose: 150.0 mg/kg/injection, schedule: Q01DX011 (ip), vehicle: carboxymethylcellulose (CMC)).
